Targets include HA-DAP5 (UniProt P78344); HA-eIF4GI (UniProt Q04637); HA-eIF4GII (UniProt O43432).
Holding throughout (assay): affinity purification with mass spectrometry; HA-tagged bait transiently expressed in MDA-MB-231; lysis in 50 mM TrisHCl pH 7.5, 150 mM NaCl, 0.5% NP-40, with Benzonase and RNase A; eluted with HA-peptide; LC-MS, PSM ratios over empty-vector control and SAINT (n = 3)

Chains of the proteins cited; added tags and fusions are not shown.
UniProt P78344: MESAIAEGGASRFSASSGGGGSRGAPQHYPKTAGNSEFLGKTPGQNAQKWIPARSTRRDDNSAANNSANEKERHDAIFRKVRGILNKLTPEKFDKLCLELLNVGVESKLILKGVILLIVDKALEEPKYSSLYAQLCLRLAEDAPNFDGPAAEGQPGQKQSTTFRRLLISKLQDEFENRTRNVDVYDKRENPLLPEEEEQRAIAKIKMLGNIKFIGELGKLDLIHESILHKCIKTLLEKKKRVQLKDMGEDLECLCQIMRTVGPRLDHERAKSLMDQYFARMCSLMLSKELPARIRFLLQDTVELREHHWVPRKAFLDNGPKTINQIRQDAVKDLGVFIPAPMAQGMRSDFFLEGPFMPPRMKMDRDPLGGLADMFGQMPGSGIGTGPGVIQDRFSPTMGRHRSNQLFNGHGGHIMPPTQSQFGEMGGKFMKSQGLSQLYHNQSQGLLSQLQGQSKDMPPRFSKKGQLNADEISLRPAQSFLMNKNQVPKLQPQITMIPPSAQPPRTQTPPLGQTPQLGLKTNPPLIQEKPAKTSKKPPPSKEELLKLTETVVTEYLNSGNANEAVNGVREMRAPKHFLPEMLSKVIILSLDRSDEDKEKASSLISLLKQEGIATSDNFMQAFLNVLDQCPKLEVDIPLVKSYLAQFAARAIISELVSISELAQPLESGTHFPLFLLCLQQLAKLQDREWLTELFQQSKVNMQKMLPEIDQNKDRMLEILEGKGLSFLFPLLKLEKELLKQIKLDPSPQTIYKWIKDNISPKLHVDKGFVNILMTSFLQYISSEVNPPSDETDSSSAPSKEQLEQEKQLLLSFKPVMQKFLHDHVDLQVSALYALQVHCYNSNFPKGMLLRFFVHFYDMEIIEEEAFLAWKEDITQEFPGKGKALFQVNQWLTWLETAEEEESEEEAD
UniProt Q04637: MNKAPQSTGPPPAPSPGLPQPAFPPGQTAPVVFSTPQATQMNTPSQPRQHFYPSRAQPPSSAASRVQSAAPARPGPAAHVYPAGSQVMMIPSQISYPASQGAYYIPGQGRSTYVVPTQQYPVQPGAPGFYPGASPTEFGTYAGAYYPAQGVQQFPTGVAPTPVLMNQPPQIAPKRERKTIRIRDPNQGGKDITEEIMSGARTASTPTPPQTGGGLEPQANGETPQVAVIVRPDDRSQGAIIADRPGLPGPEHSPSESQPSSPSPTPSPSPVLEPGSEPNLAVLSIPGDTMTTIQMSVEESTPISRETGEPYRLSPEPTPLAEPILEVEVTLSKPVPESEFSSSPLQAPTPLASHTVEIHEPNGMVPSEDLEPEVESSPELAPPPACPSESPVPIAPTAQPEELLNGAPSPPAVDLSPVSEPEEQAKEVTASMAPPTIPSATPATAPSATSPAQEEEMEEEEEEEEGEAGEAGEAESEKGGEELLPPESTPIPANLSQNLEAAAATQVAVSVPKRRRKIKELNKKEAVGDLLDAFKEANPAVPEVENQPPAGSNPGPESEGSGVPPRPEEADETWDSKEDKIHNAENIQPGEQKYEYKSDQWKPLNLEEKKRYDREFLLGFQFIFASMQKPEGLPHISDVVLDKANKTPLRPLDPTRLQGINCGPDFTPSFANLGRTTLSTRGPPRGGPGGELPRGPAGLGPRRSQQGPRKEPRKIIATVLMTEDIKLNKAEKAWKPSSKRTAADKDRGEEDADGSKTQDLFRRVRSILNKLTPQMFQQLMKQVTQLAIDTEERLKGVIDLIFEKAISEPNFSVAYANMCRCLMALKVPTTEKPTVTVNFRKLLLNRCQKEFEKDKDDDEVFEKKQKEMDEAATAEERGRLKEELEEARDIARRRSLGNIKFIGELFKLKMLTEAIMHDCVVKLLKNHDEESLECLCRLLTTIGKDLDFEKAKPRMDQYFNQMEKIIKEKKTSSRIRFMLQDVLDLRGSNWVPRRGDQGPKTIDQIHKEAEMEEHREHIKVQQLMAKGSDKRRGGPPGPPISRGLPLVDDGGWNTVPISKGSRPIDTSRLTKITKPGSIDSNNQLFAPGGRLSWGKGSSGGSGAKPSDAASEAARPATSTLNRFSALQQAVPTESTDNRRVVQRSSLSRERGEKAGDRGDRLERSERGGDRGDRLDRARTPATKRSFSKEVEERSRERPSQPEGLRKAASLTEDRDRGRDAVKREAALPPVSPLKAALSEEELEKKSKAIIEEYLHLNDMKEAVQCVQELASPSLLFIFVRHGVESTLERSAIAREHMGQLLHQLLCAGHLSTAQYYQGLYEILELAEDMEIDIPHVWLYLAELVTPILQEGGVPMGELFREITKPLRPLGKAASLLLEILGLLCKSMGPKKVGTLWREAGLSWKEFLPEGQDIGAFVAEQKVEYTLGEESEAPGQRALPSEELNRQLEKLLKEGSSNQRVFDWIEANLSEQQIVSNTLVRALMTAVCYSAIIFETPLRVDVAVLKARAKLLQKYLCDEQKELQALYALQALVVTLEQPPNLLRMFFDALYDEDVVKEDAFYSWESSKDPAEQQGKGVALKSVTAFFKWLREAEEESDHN
UniProt O43432: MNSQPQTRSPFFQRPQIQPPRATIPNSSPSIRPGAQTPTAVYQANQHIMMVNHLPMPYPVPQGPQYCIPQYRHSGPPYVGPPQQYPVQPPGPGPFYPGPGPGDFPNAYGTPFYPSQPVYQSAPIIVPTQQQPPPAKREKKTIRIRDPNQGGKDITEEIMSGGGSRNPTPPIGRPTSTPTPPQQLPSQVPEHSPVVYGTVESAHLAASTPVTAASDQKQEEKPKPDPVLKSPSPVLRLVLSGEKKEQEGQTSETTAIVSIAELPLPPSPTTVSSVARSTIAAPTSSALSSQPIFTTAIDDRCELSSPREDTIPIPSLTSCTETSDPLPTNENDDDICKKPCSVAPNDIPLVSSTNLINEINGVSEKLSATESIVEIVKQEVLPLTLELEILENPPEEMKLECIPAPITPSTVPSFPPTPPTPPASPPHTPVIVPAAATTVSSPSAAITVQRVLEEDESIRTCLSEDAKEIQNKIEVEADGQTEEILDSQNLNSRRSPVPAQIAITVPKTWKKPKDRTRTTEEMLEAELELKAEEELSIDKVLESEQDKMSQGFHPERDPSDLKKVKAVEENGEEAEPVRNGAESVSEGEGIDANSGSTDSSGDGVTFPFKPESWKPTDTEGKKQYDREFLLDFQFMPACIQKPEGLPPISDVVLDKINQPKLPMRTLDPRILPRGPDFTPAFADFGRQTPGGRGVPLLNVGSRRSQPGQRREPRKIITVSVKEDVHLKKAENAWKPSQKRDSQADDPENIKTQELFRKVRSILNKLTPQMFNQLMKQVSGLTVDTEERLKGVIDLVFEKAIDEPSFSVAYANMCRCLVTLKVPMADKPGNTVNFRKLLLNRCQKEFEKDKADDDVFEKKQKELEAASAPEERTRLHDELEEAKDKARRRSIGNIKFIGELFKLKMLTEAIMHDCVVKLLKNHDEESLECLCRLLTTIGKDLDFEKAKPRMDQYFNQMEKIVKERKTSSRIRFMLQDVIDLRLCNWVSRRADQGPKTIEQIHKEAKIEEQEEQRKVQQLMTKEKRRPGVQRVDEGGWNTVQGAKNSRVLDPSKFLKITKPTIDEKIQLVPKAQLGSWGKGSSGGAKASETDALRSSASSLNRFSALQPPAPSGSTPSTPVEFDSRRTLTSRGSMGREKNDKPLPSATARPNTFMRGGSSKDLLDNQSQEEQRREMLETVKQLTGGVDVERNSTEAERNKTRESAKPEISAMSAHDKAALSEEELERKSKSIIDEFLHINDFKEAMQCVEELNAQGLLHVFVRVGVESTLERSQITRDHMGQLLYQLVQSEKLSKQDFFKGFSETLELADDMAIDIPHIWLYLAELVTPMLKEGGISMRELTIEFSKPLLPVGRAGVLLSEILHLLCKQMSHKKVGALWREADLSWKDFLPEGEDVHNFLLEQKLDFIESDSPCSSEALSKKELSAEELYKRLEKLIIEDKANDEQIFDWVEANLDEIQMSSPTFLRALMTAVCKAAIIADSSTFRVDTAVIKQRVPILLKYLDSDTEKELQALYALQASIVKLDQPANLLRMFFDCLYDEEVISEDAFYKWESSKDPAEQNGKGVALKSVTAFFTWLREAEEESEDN
UniProt P51114: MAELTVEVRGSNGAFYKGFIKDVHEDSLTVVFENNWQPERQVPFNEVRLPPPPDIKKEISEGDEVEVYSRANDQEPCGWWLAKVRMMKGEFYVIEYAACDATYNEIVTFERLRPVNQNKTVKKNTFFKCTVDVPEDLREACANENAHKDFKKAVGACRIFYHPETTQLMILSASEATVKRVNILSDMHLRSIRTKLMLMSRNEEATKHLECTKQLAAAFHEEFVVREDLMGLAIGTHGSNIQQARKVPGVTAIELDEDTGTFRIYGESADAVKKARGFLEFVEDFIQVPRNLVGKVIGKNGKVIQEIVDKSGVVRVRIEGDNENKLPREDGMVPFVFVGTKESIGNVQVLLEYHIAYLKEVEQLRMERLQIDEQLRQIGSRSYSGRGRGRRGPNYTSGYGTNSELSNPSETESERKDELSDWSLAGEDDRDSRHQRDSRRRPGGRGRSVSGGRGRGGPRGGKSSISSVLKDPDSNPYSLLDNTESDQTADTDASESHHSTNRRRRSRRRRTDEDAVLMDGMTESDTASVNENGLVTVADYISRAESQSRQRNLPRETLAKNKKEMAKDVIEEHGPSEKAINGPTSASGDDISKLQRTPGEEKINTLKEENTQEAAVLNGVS
UniProt P51116: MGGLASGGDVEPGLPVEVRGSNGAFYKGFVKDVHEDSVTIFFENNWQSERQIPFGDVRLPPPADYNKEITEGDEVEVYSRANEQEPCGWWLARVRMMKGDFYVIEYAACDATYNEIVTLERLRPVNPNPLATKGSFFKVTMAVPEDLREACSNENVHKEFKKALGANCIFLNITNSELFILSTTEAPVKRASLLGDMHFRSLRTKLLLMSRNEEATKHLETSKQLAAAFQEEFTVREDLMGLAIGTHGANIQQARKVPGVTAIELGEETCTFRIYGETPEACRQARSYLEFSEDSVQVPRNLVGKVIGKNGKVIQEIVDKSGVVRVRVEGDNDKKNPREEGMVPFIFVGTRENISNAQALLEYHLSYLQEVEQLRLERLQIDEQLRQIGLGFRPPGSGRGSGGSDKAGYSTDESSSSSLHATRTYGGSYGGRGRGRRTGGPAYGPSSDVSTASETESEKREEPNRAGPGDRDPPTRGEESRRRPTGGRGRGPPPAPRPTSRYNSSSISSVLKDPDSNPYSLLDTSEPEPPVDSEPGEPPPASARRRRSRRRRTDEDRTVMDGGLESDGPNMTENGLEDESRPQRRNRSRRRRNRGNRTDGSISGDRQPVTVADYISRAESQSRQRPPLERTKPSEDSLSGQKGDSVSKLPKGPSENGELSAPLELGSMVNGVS
UniProt O15371: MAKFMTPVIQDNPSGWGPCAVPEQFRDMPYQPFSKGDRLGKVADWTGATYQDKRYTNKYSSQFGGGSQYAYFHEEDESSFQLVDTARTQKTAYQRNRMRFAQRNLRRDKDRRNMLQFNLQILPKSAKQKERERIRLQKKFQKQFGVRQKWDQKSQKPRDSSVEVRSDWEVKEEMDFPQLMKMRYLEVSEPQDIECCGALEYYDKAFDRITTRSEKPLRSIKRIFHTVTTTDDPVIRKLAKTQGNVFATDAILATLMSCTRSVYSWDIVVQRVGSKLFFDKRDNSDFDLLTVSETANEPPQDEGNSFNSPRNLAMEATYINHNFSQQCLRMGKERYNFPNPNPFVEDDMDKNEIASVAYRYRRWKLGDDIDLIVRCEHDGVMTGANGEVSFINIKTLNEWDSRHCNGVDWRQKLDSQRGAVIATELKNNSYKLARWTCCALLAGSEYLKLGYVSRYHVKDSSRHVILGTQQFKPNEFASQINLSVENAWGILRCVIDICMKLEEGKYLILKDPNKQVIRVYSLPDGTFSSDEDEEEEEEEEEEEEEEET
UniProt P60842: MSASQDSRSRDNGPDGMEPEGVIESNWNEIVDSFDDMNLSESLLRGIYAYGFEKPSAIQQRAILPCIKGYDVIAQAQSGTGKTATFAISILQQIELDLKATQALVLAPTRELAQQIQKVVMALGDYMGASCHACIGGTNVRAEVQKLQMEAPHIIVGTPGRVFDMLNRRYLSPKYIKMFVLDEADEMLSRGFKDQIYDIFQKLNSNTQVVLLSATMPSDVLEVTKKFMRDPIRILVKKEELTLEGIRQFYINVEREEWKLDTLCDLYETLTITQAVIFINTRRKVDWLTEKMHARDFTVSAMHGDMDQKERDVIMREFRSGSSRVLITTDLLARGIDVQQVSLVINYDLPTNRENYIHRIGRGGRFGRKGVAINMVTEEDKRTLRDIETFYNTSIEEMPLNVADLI

No constants are given. Whether binding was seen depends on the method and setting. Binding seen in cells or lysates may run through a third protein. These calls come from enrichment with a bait or labelling near it, and not all partners need be listed.

In the case of FXR1 (from UniProt P51114 1-621), the binding entry with HA-DAP5, in the test with HA-eIF4GI and with HA-eIF4GII was “binds” throughout.
For FXR2 (from UniProt P51116 1-673), the binding entry in the test with HA-DAP5, in the test with HA-eIF4GI and with HA-eIF4GII was “binds” throughout.
eIF3d (from UniProt O15371 1-548): the binding result with HA-DAP5 was “binds”.
Turning to eIF4A1 (from UniProt P60842 1-406), the binding entry in the test with HA-DAP5 and in the test with HA-eIF4GII was “binds” in each case.

The values are drawn from PMC6076257.
